# Assay results taken from PubChem BioAssay AID445 (National Center for Advancing Translational Sciences (NCATS), 2006).
# The other results are listed elsewhere or left out. The main result of the screen is listed elsewhere. These columns were measured beside it and carry no call. Most of these compounds were active or inconclusive in the main read-out, so they are no random draw. Potencies come from curve fits of mixed quality, noted in brackets.
# Assay: IkB Signaling
# Details: ABC-DLBCL IkBa-CBG/CBR dual luciferase ratio (green luciferase fused to IkBa over red control in OCI-Ly3 lymphoma cells), 4 h
# How it was run: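 Curves were fitted separately to fusion (green), unfused (red) and ratio luminescence, then classed by r2, magnitude and activity. Cells: OCI-Ly3, 4 h compound plus doxycycline at 37C; 10 uM MG-132 defined full response.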
# [1] = measured here: control luc red channel unless noted
smiles,measurement,setting,value
CC(=O)[C@@]1(O)CC[C@@H]2[C@@H]3CCC4=CC(=O)CC[C@@]4(C)[C@H]3CC[C@]21C,AC50,[1],"1.26 µM [rising, full curve, poor fit] [measured here: IkB-luc green channel]"
Cc1ccc(-n2nc(-c3cccs3)cc2C(=O)NCC2CCCO2)c(C)c1 (configuration not stated),AC50,[1],"25.1 µM [falling, single point]"
N#Cc1nc(COc2ccc(-c3ccccc3)cc2)oc1NCc1cccnc1,AC50,[1],"10 µM [falling, partial curve]"
COC(=O)c1ccccc1NC(=O)c1sc2nc(C)cc(C)c2c1NC(=O)c1ccccc1Cl,AC50,[1],"0.1 µM [rising, full curve]"
COc1ccc(NC(=O)c2cc(C(C)=O)n3ccccc23)cc1Cl,AC50,measured here: IkB-luc green channel,"5.01 µM [rising, partial curve]"
same,AC50,measured here: control luc red channel,"15.8 µM [falling, partial curve]"
COc1ccc(NC(=O)c2ncoc2-c2ccco2)cc1Cl,AC50,[1],"0.631 µM [rising, full curve, poor fit]"
CCOC(=O)c1cccc(NC(=O)C2CCN(S(=O)(=O)c3c(C)noc3/C=C/c3ccc(C)cc3)CC2)c1,AC50,[1],"3.16 µM [falling, full curve]"
O=C(Cc1ccccc1)Nc1sc2c(c1C(=O)Nc1ccccc1Cl)CCCC2,AC50,[1],"25.1 µM [falling, single point]"
COc1ccc(CNC(=O)Cn2ccc3cc(S(=O)(=O)N4CCCC4)ccc32)c(OC)c1,AC50,[1],"12.6 µM [falling, partial curve]"
COc1ccc(OC)c(-c2nnc3n(CCc4ccccc4)c(=O)c4ccccc4n23)c1,AC50,[1],"12.6 µM [falling, partial curve]"
O=C(O)CCc1ccc(-c2ccccc2)o1,AC50,[1],"31.6 µM [rising, partial curve] [measured here: IkB-luc green channel]"
Cc1ccc2oc(=O)c3cc(C(=O)NCc4ccc(Cl)cc4)sc3c2c1,AC50,[1],"39.8 µM [rising, single point]"
O=C(NC1CCCC1)C(c1ccc(O)cc1)N(CC1CCCO1)C(=O)C1COc2ccccc2O1 (configuration not stated),AC50,[1],"12.6 µM [falling, partial curve]"
COc1ccc(CCNc2oc(COc3ccc(F)cc3)nc2C#N)cc1,AC50,[1],"31.6 µM [falling, partial curve]"
COc1ccc(-c2csc3nc(-c4ccc(F)cc4)oc(=O)c23)cc1OC,AC50,[1],"1 µM [falling, full curve, poor fit]"
Cc1ccc(C(=O)OCC(=O)Nc2sc3c(c2C#N)CCCCC3)cc1NC(=O)c1ccco1,AC50,[1],"7.94 µM [falling, partial curve]"
Cc1ccc(-c2noc(CSc3nnc(C)n3-c3ccc(F)cc3)n2)cc1,AC50,[1],"25.1 µM [falling, partial curve]"
CCOc1cccc(NC(=O)C2CC(=O)N(C)C(=Nc3cccc(F)c3)S2)c1 (configuration not stated),AC50,[1],"12.6 µM [falling, partial curve]"
O=C(NCc1ccccc1F)c1cc2ccccn2n1,AC50,[1],"39.8 µM [falling, single point]"
O=C(CSc1nnnn1-c1ccc2c(c1)OCCO2)c1cccc2c1OCCO2,AC50,[1],"39.8 µM [falling, single point]"
COc1ccc(Cl)cc1NC(=O)c1noc2c1CCc1ccccc1-2,AC50,[1],"20 µM [falling, partial curve, poor fit]"
O=C(NC1CCCCC1)C(c1ccncc1)N(C(=O)Cn1nnc(-c2cccs2)n1)C1CCCC1 (configuration not stated),AC50,[1],"20 µM [falling, partial curve]"
COc1ccc2nc(NC(=O)c3nc(S(=O)(=O)Cc4ccc(C)cc4)ncc3Cl)sc2c1,AC50,[1],"12.6 µM [falling, partial curve]"
CCOc1ccccc1NC(=O)CN(c1cc(C)cc(C)c1)S(=O)(=O)c1c(C)nn(C)c1C,AC50,[1],"15.8 µM [falling, partial curve]"
Cc1ccc(NC(=O)c2cc(NC(=O)c3ccco3)ccc2N2CCOCC2)cc1,AC50,[1],"0.1 µM [falling, full curve]"
CCOc1ccc2nc(Cl)c(C3CC(c4ccccc4)=NN3C(=O)CCC(=O)O)cc2c1 (configuration not stated),AC50,[1],"10 µM [falling, partial curve, poor fit]"
Cc1ccc(Nc2nc(CSc3nnnn3-c3ccccc3)cs2)cc1,AC50,[1],"6.31 µM [falling, partial curve]"
Cc1ccc(-c2nnc(Nc3ccc(O)cc3)c3ccccc23)cc1S(=O)(=O)NC(C)(C)CO,AC50,[1],"15.8 µM [falling, partial curve]"
CCOc1ccc(S(=O)(=O)N(CC(=O)Nc2ccc(OC)c(Cl)c2)c2ccccc2)cc1,AC50,[1],"0.158 µM [falling, full curve, poor fit]"
COCCNC(=O)c1ccccc1NC(=O)C1COc2ccccc2O1 (configuration not stated),AC50,[1],"2 µM [rising, partial curve]"
CCOc1cc(C(=O)Nc2ccc3nc(N4CCN(C)CC4)cc(C)c3c2)cc(OCC)c1OCC,AC50,[1],"3.98 µM [falling, full curve]"
CCOc1ccccc1NC(=O)c1ccccc1-c1nc(-c2ccccc2OC)no1,AC50,[1],"1.58 µM [falling, full curve]"
COc1ccc(S(=O)(=O)N(CC(=O)Nc2ccc(C)cc2)c2ccc(C)cc2)cc1OC,AC50,[1],"1.58 µM [rising, partial curve]"
Cc1oc2ncnc(N3CCCCC3)c2c1C(=O)N1CCN(c2ccc(Cl)cc2)CC1,AC50,[1],"0.01 µM [falling, full curve, poor fit]"
CCOC(=O)c1ccccc1NC(=O)CSc1cn(CC(=O)N2CCCCCC2)c2ccccc12,AC50,[1],"12.6 µM [falling, partial curve]"
COc1ccc(NC(=O)c2ccco2)cc1NC(=O)c1cc(Br)ccc1Cl,AC50,[1],"3.98 µM [rising, single point]"
COc1ccc(-c2nc3c4ccccc4n(CC(=O)N4CCN(c5ccccc5F)CC4)c(=O)n3n2)cc1,AC50,[1],"3.98 µM [rising, partial curve]"
O=C(NC1C=CS(=O)(=O)C1)c1sc2ccccc2c1Cl (configuration not stated),AC50,[1],"12.6 µM [falling, partial curve]"
CN(C)c1ccc(C2=NOC(CN3C(=O)c4ccccc4S3(=O)=O)C2)cc1 (configuration not stated),AC50,[1],"6.31 µM [falling, partial curve]"
CCc1ccc(NC(=O)CCCc2nnc3n(C(C)CC)c(=O)c4sccc4n23)cc1 (configuration not stated),AC50,[1],"31.6 µM [falling, single point]"
Cc1ccc(Cl)cc1N1CCN(C(=O)COc2cc(=O)n(C)c3ccccc23)CC1,AC50,[1],"31.6 µM [falling, partial curve]"
CC(=O)N1CCc2c(sc3c2c(=O)n(Cc2ccccc2)c(=O)n3Cc2ccccc2Cl)C1,AC50,[1],"39.8 µM [falling, single point]"
COc1cc(-c2nc(-c3ccccc3)c(-c3ccc(Br)cc3)[nH]2)cc(OC)c1O,AC50,[1],"12.6 µM [falling, partial curve]"
CN(Cc1ccco1)c1ncnc2ccc(-c3ccoc3)cc12,AC50,[1],"5.01 µM [falling, partial curve]"
COc1ccc(NC(=O)C2CCN(c3ccc(Sc4ccc(C)cc4)nn3)CC2)cc1,AC50,[1],"0.00631 µM [falling, full curve, poor fit]"
CCCCCn1c(CN(C)Cc2ccccc2)nc2c1c(=O)n(C)c(=O)n2C,AC50,[1],"31.6 µM [falling, partial curve]"
CC1CN(C(=O)N2CCC(C(=O)NCc3cccs3)CC2)c2ccccc2O1 (configuration not stated),AC50,[1],"0.0251 µM [falling, full curve]"
COc1ccc(Nc2oc(/C=C/c3cc(OC)c(OC)c(OC)c3)nc2C#N)cc1,AC50,[1],"7.94 µM [falling, partial curve]"
COc1cccc(CNC(=O)Cn2c(=O)nc(-c3ccccc3F)c3cc(Cl)ccc32)c1,AC50,[1],"15.8 µM [falling, partial curve]"
Cc1sc2ncn(CC(=O)N3CCN(c4cccc(Cl)c4)CC3)c(=O)c2c1S(=O)(=O)N1CCC(C)CC1,AC50,[1],"10 µM [falling, partial curve]"
COC(=O)c1ccc(NC(=O)CN(C)S(=O)(=O)c2ccc3c(c2)CCCC(=O)N3)cc1,AC50,[1],"39.8 µM [falling, single point]"
COc1cc(C)ccc1OCCSc1nc2ccc(NC(=O)c3ccccc3F)cc2s1,AC50,[1],"5.01 µM [falling, partial curve]"
COC(=O)c1cc(NC(=O)Cn2nc(-c3ccccc3)c3c(c2=O)CCCC3)cc(C(=O)OC)c1,AC50,[1],"15.8 µM [falling, partial curve]"
O=C(Nc1nsc(-c2ccccc2)n1)c1cccs1,AC50,[1],"1.58 µM [falling, full curve]"
COc1ccc2cc3cc(C(=O)NCCN4CCc5ccccc5C4)oc3nc2c1,AC50,[1],"10 µM [falling, partial curve]"
CCc1ccc(-c2cc(C)no2)cc1S(=O)(=O)NCc1ccc(OC)cc1,AC50,[1],"6.31 µM [rising, full curve]"
Cc1ccc(-n2nc3c([n+]2[O-])CCc2c-3no[n+]2[O-])cc1,AC50,[1],"31.6 µM [falling, single point]"
CCOC(=O)c1cnc(Nc2nc3ccccc3o2)nc1CN1CCN(c2ccccc2)CC1,AC50,[1],"3.98 µM [falling, full curve]"
Cc1ccc(NS(=O)(=O)c2ccc3[nH]c4c(c3c2)CCCCCC4)cc1C,AC50,[1],"25.1 µM [falling, single point]"
CCOc1ccc(S(=O)(=O)Nc2ccc3c(c2)CCCN3S(=O)(=O)c2ccc(C)cc2)cc1,AC50,[1],"15.8 µM [falling, partial curve]"
Cc1cccc(Nc2nnc(-c3ccc(C)c(S(=O)(=O)N4CCOCC4)c3)c3ccccc23)c1,AC50,[1],"25.1 µM [falling, partial curve, poor fit]"

# 3 consecutive entries already listed, quoted:
smiles,measurement,setting,value
CCOc1ccccc1NC(=O)c1ccccc1-c1nc(-c2ccccc2OC)no1,AC50,[1],"1.58 µM [falling, full curve]"
COc1ccc(S(=O)(=O)N(CC(=O)Nc2ccc(C)cc2)c2ccc(C)cc2)cc1OC,AC50,[1],"1.58 µM [rising, partial curve]"
Cc1oc2ncnc(N3CCCCC3)c2c1C(=O)N1CCN(c2ccc(Cl)cc2)CC1,AC50,[1],"0.01 µM [falling, full curve, poor fit]"

# A second format for some results above:
smiles	measurement	setting	value
COc1ccc(NC(=O)c2ccco2)cc1NC(=O)c1cc(Br)ccc1Cl	AC50	[1]	3.98 µM [rising, single point]
COc1ccc(-c2nc3c4ccccc4n(CC(=O)N4CCN(c5ccccc5F)CC4)c(=O)n3n2)cc1	AC50	[1]	3.98 µM [rising, partial curve]
